Source: the supplement of paper PMC12819154, “High-throughput peptide-centric local stability assay extends protein–ligand identification to membrane proteins, tissues and bacteria” (Nature Structural & Molecular Biology, 2025)
Some of the results follow. Most entries show no effect beyond the scatter of the controls.

The chains behind the UniProt entries cited, without tags or fusion partners.
UniProt P68363, whole entry: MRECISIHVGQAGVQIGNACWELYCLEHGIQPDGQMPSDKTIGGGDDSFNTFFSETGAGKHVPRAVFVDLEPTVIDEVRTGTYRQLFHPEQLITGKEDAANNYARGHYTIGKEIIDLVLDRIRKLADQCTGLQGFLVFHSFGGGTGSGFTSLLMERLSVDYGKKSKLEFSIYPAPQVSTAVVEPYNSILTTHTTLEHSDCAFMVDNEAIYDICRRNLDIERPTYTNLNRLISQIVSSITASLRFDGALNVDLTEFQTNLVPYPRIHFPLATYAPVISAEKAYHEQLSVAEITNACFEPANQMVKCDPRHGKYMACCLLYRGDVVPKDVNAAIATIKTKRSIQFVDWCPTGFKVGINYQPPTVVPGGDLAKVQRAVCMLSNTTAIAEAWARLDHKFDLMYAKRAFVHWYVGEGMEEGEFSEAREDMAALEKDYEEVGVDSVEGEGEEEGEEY
UniProt P62873, whole entry: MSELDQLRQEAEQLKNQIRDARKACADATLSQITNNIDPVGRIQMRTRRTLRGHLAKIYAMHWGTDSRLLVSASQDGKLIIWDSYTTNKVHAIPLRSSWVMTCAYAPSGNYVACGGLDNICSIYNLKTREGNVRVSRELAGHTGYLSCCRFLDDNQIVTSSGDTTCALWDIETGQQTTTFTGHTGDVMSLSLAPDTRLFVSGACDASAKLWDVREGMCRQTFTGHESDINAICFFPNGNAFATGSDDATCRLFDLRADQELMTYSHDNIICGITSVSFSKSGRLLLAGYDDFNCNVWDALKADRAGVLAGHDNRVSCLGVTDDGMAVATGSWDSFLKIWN
UniProt P61106, whole entry, looked up: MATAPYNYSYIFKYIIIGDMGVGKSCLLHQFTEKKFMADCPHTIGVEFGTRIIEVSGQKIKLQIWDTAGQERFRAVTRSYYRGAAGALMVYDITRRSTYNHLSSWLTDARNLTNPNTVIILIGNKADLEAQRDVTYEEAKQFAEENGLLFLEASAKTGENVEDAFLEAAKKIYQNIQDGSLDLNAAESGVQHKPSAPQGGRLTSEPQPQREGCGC
UniProt P61024, whole entry: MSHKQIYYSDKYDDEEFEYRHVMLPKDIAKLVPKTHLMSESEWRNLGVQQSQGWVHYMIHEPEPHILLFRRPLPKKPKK
UniProt P62993, whole entry, looked up: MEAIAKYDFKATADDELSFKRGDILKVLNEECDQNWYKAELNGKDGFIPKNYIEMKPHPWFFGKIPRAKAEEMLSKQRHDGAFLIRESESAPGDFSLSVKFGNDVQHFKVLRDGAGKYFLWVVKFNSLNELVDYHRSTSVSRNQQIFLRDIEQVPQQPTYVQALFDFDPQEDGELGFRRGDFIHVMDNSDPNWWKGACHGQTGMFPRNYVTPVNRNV

Compound: CN[C@@H]1C[C@H]2O[C@@](C)([C@@H]1OC)n1c3ccccc3c3c4c(c5c6ccccc6n2c5c31)C(=O)NC4 [staurosporine]
Test: log2 fold change of tryptic peptide abundance, ligand vs vehicle (limited proteolysis) (log2 ratio); higher = more trypsin-susceptible (destabilized)
Conditions: ligand concentration: 20 uM; sample: K562 cleared lysate; digestion: 4 min, 22 C (HT-PELSA RT4min, Orbitrap Astral)

Target | log2 fold change
UniProt P68363 (peptide sequence: AVFVDLEPTVIDEVR, peptide start residue: 65) | -0.143
UniProt P62873 (peptide sequence: LFVSGACDASAK, peptide start residue: 198) | -0.0655
UniProt P61313 (peptide sequence: GATYGKPVHHGVNQLKFAR, peptide start residue: 78) | 0.708
UniProt P61106 (peptide sequence: GAAGALMVYDITRR, peptide start residue: 83) | 0.195
UniProt P61024 (peptide sequence: THLMSESEWR, peptide start residue: 35) | 0.0914
GRB2 (peptide sequence: NQQIFLR, peptide start residue: 143) (UniProt P62993) | 0.131
